Some results were stated once for a whole list of compounds, not compound by compound.
What follows are compounds tested on pneumococcal strain R6 (assay: Cell viability (CFU/ml) of R6, plating on blood agar). Conditions: 10×MIC penicillin, 10×MIC vancomycin or 0.4 mM peptide.
Type: cell-based, Streptococcus pneumoniae
Method: The peptide having amino acid sequence SEQ ID NO:2 was chemically synthesized and tested for growth inhibiting, killing and lytic activity in Streptococcus pneumoniae cultures. To characterize the antibacterial activity of the peptide, pneumococcal strain R6 which is sensitive to penicillin was exposed to 0.1 mM of the peptide having the amino acid sequence of SEQ ID NO:2 at an optical density of 0.01 (bacterial density of 3×10^6 cfu/ml). Bacterial growth as measured by optical density was followed for 11 hours and viability was assessed by plating on blood agar. […] Four hours after the start of the experiment, the control strain grew from 3×10^6 to 1.2×10^7 cfu/ml. In contrast, four hours after addition of the peptide, the viable bacterial number decreased from 3×10^6 to 3×10^4 CFU/ml (10^3-fold lower than the control).
Tolerance to penicillin occurs in bacteria that fail to trigger autolysins in response to the drug. […] This is a mechanism of resistance to these drugs and is a serious emerging medical problem. […] However, one pneumococcal strain that fails to lyse and dies slowly in response to both penicillin and vancomycin is the clinical isolate A144. This combination of traits makes A144 recalcitrant to therapy. FIG. 8 compares the activity of penicillin, vancomycin, and the peptide against a classical sensitive strain, R6, and the tolerant strain A144. […] In contrast, strain A144 loses only 0.5 logs of viability in the same time period for all three therapies. […] Thereafter the bacteria grew more slowly than untreated controls.

Compound	killing of R6 within one hour [logs]
CN[C@H](CC(C)C)C(=O)N[C@H]1C(=O)N[C@@H](CC(N)=O)C(=O)N[C@H]2C(=O)N[C@H]3C(=O)N[C@H](C(=O)N[C@H](C(=O)O)c4cc(O)cc(O)c4-c4cc3ccc4O)[C@H](O)c3ccc(c(Cl)c3)Oc3cc2cc(c3O[C@@H]2O[C@H](CO)[C@@H](O)[C@H](O)[C@H]2O[C@H]2C[C@](C)(N)[C@H](O)[C@H](C)O2)Oc2ccc(cc2Cl)[C@H]1O [Vancomycin, vancomycin]	> 3
MRKEFHNVLSSGQLLADKRPARDYN (listed as Streptococcus pneumoniae) [Peptide 1]	> 3
penicillin	> 3

Source: US6448224B1, “Antibiotics and methods of using the same” (priority 1998, dated 2002)
